Drawing on PMC5874067, this text covers binding for eight molecules.

Sequences and labels used below:
B1: tRFP-fused BBS1(WT) (protein, UniProt Q8NFJ9 1-593)
chain: MAAASSSDSDACGAESNEANSKWLDAHYDPMANIHTFSACLALADLHGDGEYKLVVGDLGPGGQQPRLKVLKGPLVMTESPLPALPAAAATFLMEQHEPRTPALALASGPCVYVYKNLRPYFKFSLPQLPPNPLEQDLWNQAKEDRIDPLTLKEMLESIRETAEEPLSIQSLRFLQLELSEMEAFVNQHKSNSIKRQTVITTMTTLKKNLADEDAVSCLVLGTENKELLVLDPEAFTILAKMSLPSVPVFLEVSGQFDVEFRLAAACRNGNIYILRRDSKHPKYCIELSAQPVGLIRVHKVLVVGSTQDSLHGFTHKGKKLWTVQMPAAILTMNLLEQHSRGLQAVMAGLANGEVRIYRDKALLNVIHTPDAVTSLCFGRYGREDNTLIMTTRGGGLIIKILKRTAVFVEGGSEVGPPPAQAMKLNVPRKTRLYVDQTLREREAGTAMHRAFQTDLYLLRLRAARAYLQALESSLSPLSTTAREPLKLHAVVQGLGPTFKLTLHLQNTSTTRPVLGLLVCFLYNEALYSLPRAFFKVPLLVPGLNYPLETFVESLSNKGISDIIKVLVLREGQSAPLLSAHVNMPGSEGLAAA
B2: mChe-fused BBS9 (protein, UniProt Q3SYG4 1-887)
chain: MSLFKARDWWSTILGDKEEFDQGCLCLANVDNSGNGQDKIIVGSFMGYLRIFSPHPAKTGDGAQAEDLLLEVDLRDPVLQVEVGKFVSGTEMLHLAVLHSRKLCVYSVSGTLGNVEHGNQCQMKLMYEHNLQRTACNMTYGSFGGVKGRDLICIQSMDGMLMVFEQESYAFGRFLPGFLLPGPLAYSSRTDSFLTVSSCQQVESYKYQVLAFATDADKRQETEQQKLGSGKRLVVDWTLNIGEQALDICIVSFNQSASSVFVLGERNFFCLKDNGQIRFMKKLDWSPSCFLPYCSVSEGTINTLIGNHNNMLHIYQDVTLKWATQLPHIPVAVRVGCLHDLKGVIVTLSDDGHLQCSYLGTDPSLFQAPNVQSRELNYDELDVEMKELQKIIKDVNKSQGVWPMTEREDDLNVSVVVSPNFDSVSQATDVEVGTDLVPSVTVKVTLQNRVILQKAKLSVYVQPPLELTCDQFTFEFMTPDLTRTVSFSVYLKRSYTPSELEGNAVVSYSRPTDRNPDGIPRVIQCKFRLPLKLICLPGQPSKTASHKITIDTNKSPVSLLSLFPGFASQSDDDQVNVMGFHFLGGARITVLASKTSQRYRIQSEQFEDLWLITNELILRLQEYFEKQGVKDFACSFSGSIPLQEYFELIDHHFELRINGEKLEELLSERAVQFRAIQRRLLARFKDKTPAPLQHLDTLLDGTYKQVIALADAVEENQGNLFQSFTRLKSATHLVILLIALWQKLSADQVAILEAAFLPLQEDTQELGWEETVDAAISHLLKTCLSKSSKEQALNLNSQLNIPKDTSQLKKHITLLCDRLSKGGRLCLSTDAAAPQTMVMPGGCTTIPESDLEERSVEQDSTELFTNHRHLTAETPRPEVSPLQGVSE
B3: mChe-fused BBS4 (protein, UniProt Q96RK4 1-519)
chain: MAEERVATRTQFPVSTESQKPRQKKAPEFPILEKQNWLIHLHYIRKDYEACKAVIKEQLQETQGLCEYAIYVQALIFRLEGNIQESLELFQTCAVLSPQSADNLKQVARSLFLLGKHKAAIEVYNEAAKLNQKDWEISHNLGVCYIYLKQFNKAQDQLHNALNLNRHDLTYIMLGKIHLLEGDLDKAIEVYKKAVEFSPENTELLTTLGLLYLQLGIYQKAFEHLGNALTYDPTNYKAILAAGSMMQTHGDFDVALTKYRVVACAVPESPPLWNNIGMCFFGKKKYVAAISCLKRANYLAPFDWKILYNLGLVHLTMQQYASAFHFLSAAINFQPKMGELYMLLAVALTNLEDIENAKRAYAEAVHLDKCNPLVNLNYAVLLYNQGEKKNALAQYQEMEKKVSLLKDNSSLEFDSEMVEMAQKLGAALQVGEALVWTKPVKDPKSKHQTTSTSKPASFQQPLGSNQALGQAMSSAAAYRTLPSGAGGTSQFTKPPSLPLEPEPAVESSPTETSEQIREK
B4: mChe-fused BBS5 (protein, UniProt Q8N3I7 1-341)
chain: MSVLDALWEDRDVRFDLSAQQMKTRPGEVLIDCLDSIEDTKGNNGDRGRLLVTNLRILWHSLALSRVNVSVGYNCILNITTRTANSKLRGQTEALYILTKCNSTRFEFIFTNLVPGSPRLFTSVMAVHRAYETSKMYRDFKLRSALIQNKQLRLLPQEHVYDKINGVWNLSSDQGNLGTFFITNVRIVWHANMNDSFNVSIPYLQIRSIKIRDSKFGLALVIESSQQSGGYVLGFKIDPVEKLQESVKEINSLHKVYSASPIFGVDYEMEEKPQPLEALTVEQIQDDVEIDSDGHTDAFVAYFADGNKQQDREPVFSEELGLAIEKLKDGFTLQGLWEVMS
B5: mChe-fused BBS8 (protein, UniProt Q8TAM2 1-541)
chain: MSSEMEPLLLAWSYFRRRKFQLCADLCTQMLEKSPYDQEPDPELPVHQAAWILKARALTEMVYIDEIDVDQEGIAEMMLDENAIAQVPRPGTSLKLPGTNQTGGPSQAVRPITQAGRPITGFLRPSTQSGRPGTMEQAIRTPRTAYTARPITSSSGRFVRLGTASMLTSPDGPFINLSRLNLTKYSQKPKLAKALFEYIFHHENDVKTIHLEDVVLHLGIYPFLLRNKNHIEKNALDLAALSTEHSQYKDWWWKVQIGKCYYRLGMYREAEKQFKSALKQQEMVDTFLYLAKVYVSLDQPVTALNLFKQGLDKFPGEVTLLCGIARIYEEMNNMSSAAEYYKEVLKQDNTHVEAIACIGSNHFYSDQPEIALRFYRRLLQMGIYNGQLFNNLGLCCFYAQQYDMTLTSFERALSLAENEEEAADVWYNLGHVAVGIGDTNLAHQCFRLALVNNNNHAEAYNNLAVLEMRKGHVEQARALLQTASSLAPHMYEPHFNFATISDKIGDLQRSYVAAQKSEAAFPDHVDTQHLIKQLRQHFAML
B6: mChe-fused BBS2 (protein, UniProt Q9BXC9 1-721)
chain: MLLPVFTLKLRHKISPRMVAIGRYDGTHPCLAAATQTGKVFIHNPHTRNQHVSASRVFQSPLESDVSLLSINQAVSCLTAGVLNPELGYDALLVGTQTNLLAYDVYNNSDLFYREVADGANAIVLGTLGDISSPLAIIGGNCALQGFNHEGSDLFWTVTGDNVNSLALCDFDGDGKKELLVGSEDFDIRVFKEDEIVAEMTETEIVTSLCPMYGSRFGYALSNGTVGVYDKTSRYWRIKSKNHAMSIHAFDLNSDGVNELITGWSNGKVDARSDRTGEVIFKDNFSSAIAGVVEGDYRMDGHIQLICCSVDGEIRGYLPGTAEMRGNLMDTSAEQDLIRELSQKKQNLLLELRNYEENAKAELASPLNEADGHRGIIPANTRLHTTLSVSLGNETQTAHTELRISTSNDTIIRAVLIFAEGIFTGESHVVHPSIHNLSSSICIPIVPPKDVPVDLHLKAFVGYRSSTQFHVFESTRQLPRFSMYALTSLDPASEPISYVNFTIAERAQRVVVWLGQNFLLPEDTHIQNAPFQVCFTSLRNGGHLHIKIKLSGEITINTDDIDLAGDIIQSMASFFAIEDLQVEADFPVYFEELRKVLVKVDEYHSVHQKLSADMADHSNLIRSLLVGAEDARLMRDMKTMKSRYMELYDLNRDLLNGYKIRCNNHTELLGNLKAVNQAIQRAGRLRVGKPKNQVITACRDAIRSNNINTLFKIMRVGTASS
B7: mChe-fused BBS7 (protein, UniProt Q8IWZ6 1-715)
chain: MDLILNRMDYLQVGVTSQKTMKLIPASRHRATQKVVIGDHDGVVMCFGMKKGEAAAVFKTLPGPKIARLELGGVINTPQEKIFIAAASEIRGFTKRGKQFLSFETNLTESIKAMHISGSDLFLSASYIYNHYCDCKDQHYYLSGDKINDVICLPVERLSRITPVLACQDRVLRVLQGSDVMYAVEVPGPPTVLALHNGNGGDSGEDLLFGTSDGKLALIQITTSKPVRKWEIQNEKKRGGILCIDSFDIVGDGVKDLLVGRDDGMVEVYSFDNANEPVLRFDQMLSESVTSIQGGCVGKDSYDEIVVSTYSGWVTGLTTEPIHKESGPGEELKINQEMQNKISSLRNELEHLQYKVLQERENYQQSSQSSKAKSAVPSFGINDKFTLNKDDASYSLILEVQTAIDNVLIQSDVPIDLLDVDKNSAVVSFSSCDSESNDNFLLATYRCQADTTRLELKIRSIEGQYGTLQAYVTPRIQPKTCQVRQYHIKPLSLHQRTHFIDHDRPMNTLTLTGQFSFAEVHSWVVFCLPEVPEKPPAGECVTFYFQNTFLDTQLESTYRKGEGVFKSDNISTISILKDVLSKEATKRKINLNISYEINEVSVKHTLKLIHPKLEYQLLLAKKVQLIDALKELQIHEGNTNFLIPEYHCILEEADHLQEEYKKQPAHLERLYGMITDLFIDKFKFKGTNVKTKVPLLLEILDSYDQNALISFFDAA
B8: mChe-fused BBS18 (protein, UniProt A8MTZ0 1-92)
chain: MLKAAAKRPELSGKNTISNNSDMAEVKSMFREVLPKQGPLFVEDIMTMVLCKPKLLPLKSLTLEKLEKMHQAAQNTIRQQEMAEKDQRQITH

No constants are given. Whether binding was seen depends on the method and setting. In cells and extracts the contact can be indirect. Some results given as binding are weak or reduced against the parent protein; the word gives no strength. Where a sequence is shown, tags or fusion partners need not be part of it.

For one experiment, the target named is T1, EGFP-BBS7 (human) (UniProt Q8IWZ6).
T1 sequence: B7 chain
Nature of the experiment: co-IP; VIP assay: lysates of HEK293T cells co-expressing an EGFP-fused and an mChe- or tRFP-fused protein (HMDEKN buffer: 10 mM HEPES pH 7.4, 5 mM MgSO4, 1 mM DTT, 0.5 mM EDTA, 25 mM KCl, 0.5% NP-40); EGFP fusion precipitated with GST-anti-GFP nanobody on glutathione-Sepharose beads; beads read by fluorescence microscopy and, for some pairs, by immunoblotting. In general terms: In western blotting, separated proteins are transferred to a membrane and probed.
For B1, the binding result is “binds”.

The target of another experiment is T2, EGFP-fused ARL6∆N15(Q73L) (UniProt Q9H0F7).
T2 sequence: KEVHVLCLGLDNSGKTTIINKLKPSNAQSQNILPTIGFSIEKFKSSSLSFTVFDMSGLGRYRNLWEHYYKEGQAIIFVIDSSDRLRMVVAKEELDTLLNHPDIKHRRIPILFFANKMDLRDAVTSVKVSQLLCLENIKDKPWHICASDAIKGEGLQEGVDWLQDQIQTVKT
Described as above.
As to B1, the binding entry is “binds”.

Regarding B2, the binding entry is reported as “no binding”.

As to B3, the binding entry is reported as “no binding”.

As to B4, the binding result is reported as “no binding”.

In the case of B5, the binding result is “no binding”.

With B6, the binding entry is “no binding”.

With B7, the binding result is recorded as “no binding”.

For B8, the binding entry is “no binding”.
